Test system: HUVEC cells
Assay: optimized inflammatory assay combination: HUVEC treated with TNF-α+IFN-γ+IL-1, readout parameters by cell-based ELISA (biomap)
Design: species or system human
Details: ibuprofen tested at 500, 250 and 125 μM; derived from the primary data
Protocol: Primary human umbilical vein endothelial cells (HUVEC) are used. Other cells that may replace HUVEC in the screen include primary microvascular endothelial cells, aortic or arteriolar endothelial cells or endothelial cell lines such as EAhy926 or E6-[…]-5-2G cells or human telomerase reverse transcriptase-expressing endothelial cells (Simmons, J. Immunol., 148:267, 1992; Rhim, Carcinogenesis 19:673, 1998; Yang, J. Biol. Chem. 274:26141, 1999). 2×10^4 cells/ml are cultured to confluence in EGM-2 (Clonetics). […] After 24 hours, cultures are washed and evaluated for the presence of the parameters ICAM-1 (1), VCAM-1 (2), E-selectin (3), IL-8 (4), CD31 (5), HLA-DR (6) and MIG (7) by cell-based ELISA as described (Melrose, J. Immunol. 161:2457, 1998). […] Development is stopped by addition of H2SO4 and the absorbance at 450 nm (subtracting the background absorbance at 600 nm) is read with a Molecular Dynamics plate reader. […] In FIG. 3A, the relative expression of each parameter is shown along the y-axis as average value of the OD measured at 450 nm of triplicate samples. […]

## CC(C)Cc1ccc(C(C)C(=O)O)cc1 (stereo not shown) [ibuprofen]
  correlation coefficients between biomaps at different concentrations (regression analysis): 0.96-0.99
